What all share (assay): co-IP
Experiment [1] deals with FLAG-Rab18 (overexpressed in C2C12 cells) (mouse) (UniProt P35293).
The target in experiment [2] is T1, FLAG-PLIN2 (overexpressed in C2C12 cells) (mouse) (UniProt P43883).
T1 sequence: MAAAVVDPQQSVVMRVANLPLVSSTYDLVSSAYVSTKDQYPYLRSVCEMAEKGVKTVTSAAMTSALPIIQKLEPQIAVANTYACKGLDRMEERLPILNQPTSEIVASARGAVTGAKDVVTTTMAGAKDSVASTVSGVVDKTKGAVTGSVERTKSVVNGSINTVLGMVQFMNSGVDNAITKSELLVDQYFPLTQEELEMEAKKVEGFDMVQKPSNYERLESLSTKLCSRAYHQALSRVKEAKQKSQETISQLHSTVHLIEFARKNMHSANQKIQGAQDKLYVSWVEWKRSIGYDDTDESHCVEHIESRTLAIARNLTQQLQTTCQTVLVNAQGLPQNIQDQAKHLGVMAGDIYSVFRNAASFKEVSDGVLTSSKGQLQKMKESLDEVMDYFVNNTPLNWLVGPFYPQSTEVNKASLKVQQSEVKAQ

Protein sequences, listed by entry. Tags and fused reporters are not part of them.
UniProt P35293: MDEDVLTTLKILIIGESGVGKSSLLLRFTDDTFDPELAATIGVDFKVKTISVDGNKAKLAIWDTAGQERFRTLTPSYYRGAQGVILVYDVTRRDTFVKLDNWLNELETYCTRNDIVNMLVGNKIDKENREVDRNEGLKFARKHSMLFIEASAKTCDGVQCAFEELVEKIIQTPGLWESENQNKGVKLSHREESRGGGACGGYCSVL
UniProt Q9CZW4: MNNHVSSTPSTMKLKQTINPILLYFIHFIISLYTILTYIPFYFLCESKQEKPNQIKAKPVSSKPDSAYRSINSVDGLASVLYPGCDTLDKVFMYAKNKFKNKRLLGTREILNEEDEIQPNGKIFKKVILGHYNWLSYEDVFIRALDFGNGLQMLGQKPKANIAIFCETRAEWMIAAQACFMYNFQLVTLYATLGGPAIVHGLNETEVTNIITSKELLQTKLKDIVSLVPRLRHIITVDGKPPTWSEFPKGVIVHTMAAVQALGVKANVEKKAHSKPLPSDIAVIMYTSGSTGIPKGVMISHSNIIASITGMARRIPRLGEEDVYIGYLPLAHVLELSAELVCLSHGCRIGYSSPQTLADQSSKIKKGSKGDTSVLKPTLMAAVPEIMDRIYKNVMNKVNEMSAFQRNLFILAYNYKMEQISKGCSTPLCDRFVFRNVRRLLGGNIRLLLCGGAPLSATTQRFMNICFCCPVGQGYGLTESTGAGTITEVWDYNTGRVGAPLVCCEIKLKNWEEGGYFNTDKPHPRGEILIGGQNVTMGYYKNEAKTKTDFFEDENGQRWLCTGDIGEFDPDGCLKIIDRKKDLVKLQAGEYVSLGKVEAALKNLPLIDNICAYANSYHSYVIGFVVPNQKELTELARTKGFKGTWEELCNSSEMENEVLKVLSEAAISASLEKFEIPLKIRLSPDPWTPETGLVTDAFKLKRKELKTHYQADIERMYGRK

In experiment [3] the target is FLAG-Rab18 (transfected in HEK293A cells) (mouse) (UniProt P35293).

Here are results for 8 molecules from publication doi:10.1101/2020.05.02.073957.

These are yes or no findings as the source states them, for the method shown. Binding seen in cells or lysates may run through a third protein. Some binding calls cover weakened binding; strength is not graded here. For some assays here: Sequences can lack the tags named with a protein.

Turning to “acyl-CoA synthetase long-chain family member 3 (ACSL3), endogenous in C2C12 lipid droplets (from UniProt Q9CZW4 1-720) (enzyme)”, in experiment [1], the binding entry is “binds”.
In the case of “Rab18, endogenous in C2C12 lipid droplets (from UniProt P35293 1-206)”, the binding entry in experiment [2] is reported as “binds”.

B1: PLIN2-370-425 (domain or fragment, UniProt P43883 370-425)
chain: TSSKGQLQKMKESLDEVMDYFVNNTPLNWLVGPFYPQSTEVNKASLKVQQSEVKAQ
In the case of B1, the binding result in experiment [3] was “binds”.

B2: GFP-PLIN2-251-425 (domain or fragment, UniProt P43883 251-425)
chain: LHSTVHLIEFARKNMHSANQKIQGAQDKLYVSWVEWKRSIGYDDTDESHCVEHIESRTLAIARNLTQQLQTTCQTVLVNAQGLPQNIQDQAKHLGVMAGDIYSVFRNAASFKEVSDGVLTSSKGQLQKMKESLDEVMDYFVNNTPLNWLVGPFYPQSTEVNKASLKVQQSEVKAQ
Consider B2, for which the binding entry in experiment [3] is on record as “binds”.

B3: GFP-PLIN2-1-251 (domain or fragment, UniProt P43883 1-251)
chain: MAAAVVDPQQSVVMRVANLPLVSSTYDLVSSAYVSTKDQYPYLRSVCEMAEKGVKTVTSAAMTSALPIIQKLEPQIAVANTYACKGLDRMEERLPILNQPTSEIVASARGAVTGAKDVVTTTMAGAKDSVASTVSGVVDKTKGAVTGSVERTKSVVNGSINTVLGMVQFMNSGVDNAITKSELLVDQYFPLTQEELEMEAKKVEGFDMVQKPSNYERLESLSTKLCSRAYHQALSRVKEAKQKSQETISQL
Regarding B3, in experiment [3], the binding entry is on record as “no binding”.

B4: PLIN2-395-425 (domain or fragment, UniProt P43883 395-425)
chain: PLNWLVGPFYPQSTEVNKASLKVQQSEVKAQ
For the molecule B4, the binding result in experiment [3] is “binds”.

B5: perilipin 2 (PLIN2), endogenous in C2C12 lipid droplets (protein, UniProt P43883 1-425)
chain: T1 sequence
For the molecule B5, the binding result in experiment [1] is given as “binds”.

B6: full length GFP-PLIN2 (GFP-PLIN2-FL) (protein, UniProt P43883 1-425)
chain: T1 sequence
On to B6, for which the binding entry in experiment [3] is on record as “binds”.
